This is one part of the list.
Experiments:
Assay in all cases: log2 fold change, soluble protein after heating vs DMSO (PISA); higher = thermal stabilisation; K562 lysate, 10 uM; active = over 0.2 and 3.5 SD of the protein, either way, in both replicates (recomputed)
erlotinib = compound: C#Cc1cccc(Nc2ncnc3cc(OCCOC)c(OCCOC)cc23)c1 [erlotinib]
Summary of the method: (§1)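 The values are log-two fold changes in thermal stability compared with solvent controls and come from duplicates. They were obtained by TMTpro 16plex LC-MS/MS, with channel sums equalised, on the supernatant after 21,000xg for 90 min. That supernatant came from crude K562 extract at 1 mg/mL protein treated with 10 μM compound for 30 min, heated for 3 min across 48°C-58°C, pooled and brought to 0.5% NP-40 at 4°C.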

By UniProt entry, the sequences of proteins in these tests, tags left out. Where a name states a change or a piece, a line headed by the entry shows the natural chain unless it says otherwise.
UniProt O43422: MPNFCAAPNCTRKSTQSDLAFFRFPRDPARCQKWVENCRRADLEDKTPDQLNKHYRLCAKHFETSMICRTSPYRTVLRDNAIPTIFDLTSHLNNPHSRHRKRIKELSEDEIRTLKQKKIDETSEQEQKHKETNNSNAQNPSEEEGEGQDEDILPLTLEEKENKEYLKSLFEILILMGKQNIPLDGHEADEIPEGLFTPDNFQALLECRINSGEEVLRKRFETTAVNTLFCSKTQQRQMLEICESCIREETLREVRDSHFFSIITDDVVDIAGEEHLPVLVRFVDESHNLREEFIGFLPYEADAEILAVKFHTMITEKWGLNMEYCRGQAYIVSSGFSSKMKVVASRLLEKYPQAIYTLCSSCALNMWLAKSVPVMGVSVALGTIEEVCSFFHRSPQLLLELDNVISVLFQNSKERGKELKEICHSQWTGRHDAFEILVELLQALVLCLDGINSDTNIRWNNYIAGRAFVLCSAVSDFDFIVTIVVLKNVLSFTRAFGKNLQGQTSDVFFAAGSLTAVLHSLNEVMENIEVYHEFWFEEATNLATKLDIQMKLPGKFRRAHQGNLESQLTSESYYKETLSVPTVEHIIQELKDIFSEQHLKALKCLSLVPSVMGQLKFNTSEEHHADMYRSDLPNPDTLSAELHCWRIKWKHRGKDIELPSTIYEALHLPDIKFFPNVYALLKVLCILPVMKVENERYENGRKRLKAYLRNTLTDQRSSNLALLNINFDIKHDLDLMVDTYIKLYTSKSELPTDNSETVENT
UniProt Q12893: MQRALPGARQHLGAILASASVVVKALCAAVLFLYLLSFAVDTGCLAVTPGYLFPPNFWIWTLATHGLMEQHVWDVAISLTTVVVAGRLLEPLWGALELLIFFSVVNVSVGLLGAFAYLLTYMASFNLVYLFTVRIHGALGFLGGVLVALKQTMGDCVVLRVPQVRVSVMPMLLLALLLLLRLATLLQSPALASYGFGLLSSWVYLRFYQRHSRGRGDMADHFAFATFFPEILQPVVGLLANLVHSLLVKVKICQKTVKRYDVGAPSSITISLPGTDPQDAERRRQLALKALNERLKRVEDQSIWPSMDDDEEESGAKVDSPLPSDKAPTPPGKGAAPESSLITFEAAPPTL
UniProt Q04727: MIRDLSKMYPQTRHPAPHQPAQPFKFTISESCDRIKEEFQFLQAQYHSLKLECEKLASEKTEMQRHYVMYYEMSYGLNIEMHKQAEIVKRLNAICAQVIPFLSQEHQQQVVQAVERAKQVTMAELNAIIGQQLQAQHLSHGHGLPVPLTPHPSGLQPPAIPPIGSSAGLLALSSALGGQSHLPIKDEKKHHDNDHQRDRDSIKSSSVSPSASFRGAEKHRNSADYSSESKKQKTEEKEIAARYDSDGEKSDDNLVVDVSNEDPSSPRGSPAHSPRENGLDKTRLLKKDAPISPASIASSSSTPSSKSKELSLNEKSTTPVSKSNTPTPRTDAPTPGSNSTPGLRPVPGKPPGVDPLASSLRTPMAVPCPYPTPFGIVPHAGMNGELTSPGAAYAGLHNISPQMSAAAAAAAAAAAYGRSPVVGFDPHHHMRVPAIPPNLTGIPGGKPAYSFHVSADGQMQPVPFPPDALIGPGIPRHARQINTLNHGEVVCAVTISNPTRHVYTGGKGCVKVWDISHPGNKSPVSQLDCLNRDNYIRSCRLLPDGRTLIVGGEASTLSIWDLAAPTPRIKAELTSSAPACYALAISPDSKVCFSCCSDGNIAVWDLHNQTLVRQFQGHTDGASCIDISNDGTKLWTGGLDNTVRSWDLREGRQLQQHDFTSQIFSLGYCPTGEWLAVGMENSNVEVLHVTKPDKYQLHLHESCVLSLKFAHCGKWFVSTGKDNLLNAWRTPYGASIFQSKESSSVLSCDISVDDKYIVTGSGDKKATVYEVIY
UniProt Q92544: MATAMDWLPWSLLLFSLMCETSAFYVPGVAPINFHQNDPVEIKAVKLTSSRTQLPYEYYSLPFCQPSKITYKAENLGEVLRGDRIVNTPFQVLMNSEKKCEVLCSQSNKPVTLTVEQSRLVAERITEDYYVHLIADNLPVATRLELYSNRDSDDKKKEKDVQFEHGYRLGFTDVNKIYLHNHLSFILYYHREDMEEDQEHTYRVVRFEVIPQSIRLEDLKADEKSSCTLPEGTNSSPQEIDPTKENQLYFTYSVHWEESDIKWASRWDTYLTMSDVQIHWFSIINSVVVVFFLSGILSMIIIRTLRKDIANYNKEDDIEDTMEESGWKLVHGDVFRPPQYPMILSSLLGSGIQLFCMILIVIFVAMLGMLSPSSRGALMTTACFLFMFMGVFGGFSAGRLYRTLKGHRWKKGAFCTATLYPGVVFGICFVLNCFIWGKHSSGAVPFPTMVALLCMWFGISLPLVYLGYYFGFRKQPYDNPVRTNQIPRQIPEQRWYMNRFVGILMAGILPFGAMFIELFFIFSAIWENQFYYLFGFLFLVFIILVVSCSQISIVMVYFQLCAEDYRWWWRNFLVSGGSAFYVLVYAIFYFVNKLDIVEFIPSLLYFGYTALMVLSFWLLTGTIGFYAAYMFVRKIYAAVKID
UniProt Q9NXG2: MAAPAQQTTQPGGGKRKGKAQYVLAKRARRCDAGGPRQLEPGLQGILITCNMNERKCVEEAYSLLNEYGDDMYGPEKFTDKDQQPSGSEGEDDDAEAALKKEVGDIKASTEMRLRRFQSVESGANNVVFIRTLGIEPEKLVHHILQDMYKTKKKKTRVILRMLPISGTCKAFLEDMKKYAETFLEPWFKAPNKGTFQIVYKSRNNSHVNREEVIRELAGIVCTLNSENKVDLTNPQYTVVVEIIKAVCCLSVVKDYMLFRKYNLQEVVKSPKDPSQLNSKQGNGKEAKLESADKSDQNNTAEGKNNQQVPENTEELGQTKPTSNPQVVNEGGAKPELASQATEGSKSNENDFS
UniProt Q96B77: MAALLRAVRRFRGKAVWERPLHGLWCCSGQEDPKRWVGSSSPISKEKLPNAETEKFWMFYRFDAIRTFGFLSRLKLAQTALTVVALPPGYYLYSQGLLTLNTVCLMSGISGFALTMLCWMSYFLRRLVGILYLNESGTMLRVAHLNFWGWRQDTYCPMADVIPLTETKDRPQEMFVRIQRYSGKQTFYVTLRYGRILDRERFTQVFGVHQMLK
UniProt Q9Y2S6, whole entry, looked up: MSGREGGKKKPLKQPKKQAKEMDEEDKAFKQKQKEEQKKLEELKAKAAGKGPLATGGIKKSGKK
UniProt Q969X1: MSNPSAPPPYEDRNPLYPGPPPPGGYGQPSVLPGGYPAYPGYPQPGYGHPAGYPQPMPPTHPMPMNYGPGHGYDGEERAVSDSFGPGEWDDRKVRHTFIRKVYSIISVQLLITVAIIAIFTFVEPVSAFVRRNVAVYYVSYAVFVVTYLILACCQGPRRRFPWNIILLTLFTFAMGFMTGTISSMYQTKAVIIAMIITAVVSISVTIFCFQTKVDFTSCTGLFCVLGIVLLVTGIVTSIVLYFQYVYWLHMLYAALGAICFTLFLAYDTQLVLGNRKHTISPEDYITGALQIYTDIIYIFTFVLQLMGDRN
UniProt Q9NX00: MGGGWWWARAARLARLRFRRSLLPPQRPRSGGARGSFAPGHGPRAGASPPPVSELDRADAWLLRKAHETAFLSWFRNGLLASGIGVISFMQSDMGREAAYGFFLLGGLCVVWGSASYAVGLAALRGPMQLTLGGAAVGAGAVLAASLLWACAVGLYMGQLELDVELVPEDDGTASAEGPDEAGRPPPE
UniProt P31483: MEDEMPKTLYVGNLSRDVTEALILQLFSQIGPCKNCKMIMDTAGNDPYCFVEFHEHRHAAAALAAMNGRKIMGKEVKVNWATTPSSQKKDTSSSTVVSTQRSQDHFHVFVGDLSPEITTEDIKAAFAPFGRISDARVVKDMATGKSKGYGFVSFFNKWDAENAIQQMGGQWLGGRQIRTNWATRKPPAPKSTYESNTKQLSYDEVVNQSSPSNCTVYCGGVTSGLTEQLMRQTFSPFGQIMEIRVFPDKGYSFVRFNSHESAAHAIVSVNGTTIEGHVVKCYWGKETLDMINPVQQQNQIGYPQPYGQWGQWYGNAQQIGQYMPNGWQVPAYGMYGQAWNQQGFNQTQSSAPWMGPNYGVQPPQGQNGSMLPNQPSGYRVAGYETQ
UniProt Q9BU02: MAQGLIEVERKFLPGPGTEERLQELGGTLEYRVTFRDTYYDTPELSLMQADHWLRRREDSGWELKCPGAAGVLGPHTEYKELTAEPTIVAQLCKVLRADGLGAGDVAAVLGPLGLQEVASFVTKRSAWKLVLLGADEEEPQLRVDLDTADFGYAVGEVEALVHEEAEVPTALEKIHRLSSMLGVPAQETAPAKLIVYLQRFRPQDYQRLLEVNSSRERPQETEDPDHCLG
UniProt P49755: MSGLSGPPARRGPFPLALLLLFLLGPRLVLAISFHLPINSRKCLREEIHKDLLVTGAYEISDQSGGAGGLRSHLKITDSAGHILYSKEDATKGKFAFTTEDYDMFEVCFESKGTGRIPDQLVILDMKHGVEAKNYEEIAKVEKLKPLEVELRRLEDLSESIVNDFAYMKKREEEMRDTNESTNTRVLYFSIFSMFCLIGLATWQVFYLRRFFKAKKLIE
UniProt Q9BXJ8: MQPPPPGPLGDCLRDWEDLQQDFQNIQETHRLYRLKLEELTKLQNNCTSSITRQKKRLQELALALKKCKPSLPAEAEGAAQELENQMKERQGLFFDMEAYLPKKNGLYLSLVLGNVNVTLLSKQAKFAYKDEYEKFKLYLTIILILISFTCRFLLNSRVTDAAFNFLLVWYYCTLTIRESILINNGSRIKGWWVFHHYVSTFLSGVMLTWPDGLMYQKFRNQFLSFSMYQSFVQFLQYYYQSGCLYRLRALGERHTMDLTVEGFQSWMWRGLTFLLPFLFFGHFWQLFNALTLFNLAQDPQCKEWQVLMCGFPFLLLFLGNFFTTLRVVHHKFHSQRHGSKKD
UniProt Q9UNS1: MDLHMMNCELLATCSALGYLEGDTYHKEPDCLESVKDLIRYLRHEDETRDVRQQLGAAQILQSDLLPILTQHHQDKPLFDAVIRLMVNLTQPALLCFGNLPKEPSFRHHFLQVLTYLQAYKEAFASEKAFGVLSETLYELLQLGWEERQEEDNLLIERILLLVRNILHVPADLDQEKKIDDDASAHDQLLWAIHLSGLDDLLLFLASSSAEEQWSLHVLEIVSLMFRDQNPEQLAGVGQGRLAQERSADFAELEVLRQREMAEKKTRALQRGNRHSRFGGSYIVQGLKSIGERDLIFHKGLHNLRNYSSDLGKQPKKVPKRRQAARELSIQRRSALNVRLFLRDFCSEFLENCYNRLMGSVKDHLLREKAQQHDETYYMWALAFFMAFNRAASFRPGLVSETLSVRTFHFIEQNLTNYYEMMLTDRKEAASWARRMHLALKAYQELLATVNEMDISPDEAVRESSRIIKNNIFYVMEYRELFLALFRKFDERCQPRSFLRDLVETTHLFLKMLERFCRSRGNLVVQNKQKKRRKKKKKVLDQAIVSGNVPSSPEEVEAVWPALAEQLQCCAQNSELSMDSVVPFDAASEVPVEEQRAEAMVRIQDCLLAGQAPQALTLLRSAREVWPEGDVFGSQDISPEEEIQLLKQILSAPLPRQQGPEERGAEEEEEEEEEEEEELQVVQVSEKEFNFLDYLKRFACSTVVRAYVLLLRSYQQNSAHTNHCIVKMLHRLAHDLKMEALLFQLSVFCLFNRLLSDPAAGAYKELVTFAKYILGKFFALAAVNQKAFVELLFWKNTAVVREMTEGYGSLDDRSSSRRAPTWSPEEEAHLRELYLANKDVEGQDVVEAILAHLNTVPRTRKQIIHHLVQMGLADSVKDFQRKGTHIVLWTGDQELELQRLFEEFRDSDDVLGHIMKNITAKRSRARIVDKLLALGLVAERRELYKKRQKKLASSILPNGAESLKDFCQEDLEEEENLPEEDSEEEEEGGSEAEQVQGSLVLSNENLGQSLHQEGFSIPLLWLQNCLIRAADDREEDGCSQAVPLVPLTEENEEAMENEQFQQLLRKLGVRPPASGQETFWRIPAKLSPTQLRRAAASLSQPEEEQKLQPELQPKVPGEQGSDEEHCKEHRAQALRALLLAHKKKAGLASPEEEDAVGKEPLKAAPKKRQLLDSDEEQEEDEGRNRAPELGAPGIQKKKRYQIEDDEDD
UniProt O75663: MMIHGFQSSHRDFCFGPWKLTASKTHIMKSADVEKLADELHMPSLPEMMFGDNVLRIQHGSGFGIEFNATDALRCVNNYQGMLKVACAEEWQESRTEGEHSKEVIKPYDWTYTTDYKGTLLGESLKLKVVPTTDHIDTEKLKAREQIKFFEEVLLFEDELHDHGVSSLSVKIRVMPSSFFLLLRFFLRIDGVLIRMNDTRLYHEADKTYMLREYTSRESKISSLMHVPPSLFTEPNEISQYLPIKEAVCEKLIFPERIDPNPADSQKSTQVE

[1] = compound: C/C(=N\NC(=O)C1=CC(=CC=C1)S(=O)(=O)N2CCOCC2)/C3=C(C=CC(=C3)Cl)O
Summary of the method: as §1

[2] = compound: C1=CC(=CC=C1C2=NC3=C(N2)C=C(C=C3)C(=O)N)OC4=CC=C(C=C4)Cl
Summary of the method: as §1

[3] = compound: C1=CC2=C(C=CC(=C2)/C=C\3/C(=O)NC(=NCC4=CC=CS4)S3)N=C1
Summary of the method: as §1

[4] = compound: C1=CC2=NC=CN=C2C=C1/C=C/3\C(=O)NC(=O)S3
Summary of the method: as §1

[5] = compound: C1=CC=C(C=C1)C2=NC(=C(N2)C3=CC=NC=C3)C4=CC(=C(C=C4)Cl)O
Summary of the method: as §1

[6] = compound: C1=CC=C2C(=C1)C3=NNC4=CC=CC(=C43)C2=O
Summary of the method: as §1

[7] = compound: C1CCN(C1)C(=O)NC2=CC=CC(=C2)NC3=NC=C(C(=N3)NCCC4=CN=CN4)Br
Summary of the method: as §1

[8] = compound: C1CN(CCC1(CC2=CC=C(C=C2)Cl)N)C3=NC=NC4=C3C=CN4
Summary of the method: as §1

IRAK-1-4 Inhibitor I = compound: C1COCCN1CCN2C3=CC=CC=C3N=C2NC(=O)C4=CC(=CC=C4)[N+](=O)[O-] [IRAK-1-4 Inhibitor I]
Summary of the method: as §1

ibrutinib = compound: C=CC(=O)N1CCC[C@@H](n2nc(-c3ccc(Oc4ccccc4)cc3)c3c(N)ncnc32)C1 [ibrutinib]
Summary of the method: as §1

[9] = compound: CC(=O)c1cnc2ccc(-c3cc(Cl)c(O)c(Cl)c3)nc2c1N[C@H]1CC[C@H](CN(C)C)CC1
Summary of the method: as §1

ralimetinib = compound: CC(C)(C)Cn1c(N)nc2ccc(-c3[nH]c(C(C)(C)C)nc3-c3ccc(F)cc3)nc21 [ralimetinib]
Summary of the method: as §1

[10] = compound: CC(C)(O)CC(=O)NCCn1ccc2ncnc(Nc3ccc(Oc4cccc(C(F)(F)F)c4)c(Cl)c3)c21
Summary of the method: as §1

[11] = compound: CC(C)C1=C2N=C(C=C(N2N=C1)NCC3=CC=CC=C3)NCCCCCCN
Summary of the method: as §1

[12] = compound: CC1=C(C(CC(=O)N1)C2=CC=C(C=C2)C(F)(F)F)C(=O)NC3=C(C=C4C(=C3)C=NN4)F
Summary of the method: as §1

[13] = compound: CC1=C(C2=C(C=C1)C(=O)C3=CC=CC=C3N2CCCN)C
Summary of the method: as §1

[14] = compound: CC1=C(C=C(C=C1)NC(=O)C2=CC(=CC=C2)C(C)(C)C#N)NC3=CC4=C(C=C3)N=CN(C4=O)C
Summary of the method: as §1

[15] = compound: CC1=C(C=C(C=C1)NC(=O)C2=CC(=CC=C2)N(C)C)NC(=O)C3=CC=C(C=C3)O
Summary of the method: as §1

[16] = compound: CC1=CC=C(C=C1)SC2=C3C=C(SC3=CN=C2)C(=O)N
Summary of the method: as §1

Measured: log2 fold change

THAP12 (UniProt O43422)
inactive: erlotinib 0.001 | [1] -0.001 | [2] 0.014 | [3] 0.044 | [4] -0.008 | [5] -0.02 | [6] -0.063 | [7] -0.005 | [8] -0.008 | IRAK-1-4 Inhibitor I -0.023 | ibrutinib -0.014 | [9] -0.003 | ralimetinib 0.012 | [10] -0.049 | [11] -0.004 | [12] 0.018 | [13] 0 | [14] 0.042 | [15] 0.04 | [16] 0.003

TMEM115 (UniProt Q12893)
inactive: erlotinib -0.015 | [1] 0 | [2] -0.053 | [3] 0.04 | [4] -0.02 | [5] -0.021 | [6] 0.044 | [7] -0.01 | [8] 0.023 | IRAK-1-4 Inhibitor I 0.056 | ibrutinib 0.062 | [9] -0.022 | ralimetinib -0.003 | [10] -0.004 | [11] -0.041 | [12] -0.01 | [13] -0.004 | [14] 0.056 | [15] 0.05 | [16] 0.087

TLE4 isoform 3 (UniProt Q04727)
inactive: erlotinib -0.075 | [1] 0.034 | [2] 0.018 | [3] 0.025 | [4] 0.003 | [5] 0.017 | [6] 0.036 | [7] -0.019 | [8] -0.004 | IRAK-1-4 Inhibitor I -0.02 | ibrutinib 0.006 | [9] 0.014 | ralimetinib 0.021 | [10] -0.01 | [11] -0.051 | [12] 0.027 | [13] 0.031 | [14] -0.049 | [15] -0.003 | [16] 0

TM9SF4 (UniProt Q92544)
inactive: erlotinib -0.009 | [1] -0.002 | [2] -0.048 | [3] 0.052 | [4] -0.015 | [5] -0.022 | [6] -0.151 | [7] -0.021 | [8] -0.012 | IRAK-1-4 Inhibitor I 0.015 | ibrutinib -0.005 | [9] -0.014 | ralimetinib -0.011 | [10] -0.045 | [11] 0.002 | [12] 0.023 | [13] -0.01 | [14] -0.022 | [15] -0.001 | [16] -0.013

THUMPD1 (UniProt Q9NXG2)
inactive: erlotinib 0.008 | [1] -0.006 | [2] 0.007 | [3] -0.002 | [4] 0.001 | [5] -0.006 | [6] 0.016 | [7] 0.011 | [8] -0.014 | IRAK-1-4 Inhibitor I 0.007 | ibrutinib 0 | [9] 0.015 | ralimetinib -0.016 | [10] -0.002 | [11] 0.005 | [12] -0.032 | [13] 0.029 | [14] 0.001 | [15] -0.023 | [16] 0.002

TMEM186 (UniProt Q96B77)
inactive: erlotinib 0.033 | [1] -0.047 | [2] -0.045 | [3] -0.029 | [4] 0.002 | [5] 0.04 | [6] 0.041 | [7] -0.019 | [8] 0.036 | IRAK-1-4 Inhibitor I -0.046 | ibrutinib 0.023 | [9] -0.009 | ralimetinib 0.002 | [10] -0.051 | [11] -0.041 | [12] -0.022 | [13] -0.057 | [14] 0.035 | [15] -0.032 | [16] -0.027

TMA7 (UniProt Q9Y2S6)
inactive: erlotinib 0 | [1] 0.001 | [2] 0.014 | [3] 0.004 | [4] -0.032 | [5] 0.054 | [6] 0.002 | [7] 0.012 | [8] -0.007 | IRAK-1-4 Inhibitor I -0.023 | ibrutinib -0.063 | [9] 0.029 | ralimetinib -0.094 | [10] 0.047 | [11] 0.019 | [12] -0.011 | [13] 0.051 | [14] -0.127 | [15] 0.015 | [16] -0.002

TMBIM1 (UniProt Q969X1)
inactive: erlotinib -0.07 | [1] 0.115 | [2] 0 | [3] 0 | [4] 0.054 | [5] -0.023 | [6] -0.05 | [7] 0.013 | [8] 0.029 | IRAK-1-4 Inhibitor I 0 | ibrutinib 0.058 | [9] -0.002 | ralimetinib 0.022 | [10] -0.005 | [11] 0.01 | [12] 0.011 | [13] 0.028 | [14] 0.072 | [15] -0.041 | [16] -0.015

TMEM160 (UniProt Q9NX00)
inactive: erlotinib -0.02 | [1] -0.126 | [2] -0.026 | [3] -0.216 | [4] 0.059 | [5] 0.009 | [6] 0.005 | [7] 0.078 | [8] 0.104 | IRAK-1-4 Inhibitor I 0.086 | ibrutinib -0.086 | [9] 0.049 | ralimetinib -0.013 | [10] -0.034 | [11] 0.039 | [12] -0.001 | [13] 0.013 | [14] -0.075 | [15] -0.008 | [16] -0.036

TIA1 (UniProt P31483)
inactive: erlotinib 0 | [1] -0.01 | [2] 0.134 | [3] -0.051 | [4] -0.009 | [5] -0.055 | [6] 0 | [7] 0 | [8] -0.055 | IRAK-1-4 Inhibitor I 0.005 | ibrutinib -0.02 | [9] -0.006 | ralimetinib -0.017 | [10] 0.038 | [11] -0.056 | [12] -0.07 | [13] 0.08 | [14] -0.163 | [15] -0.045 | [16] 0.017

THTPA (UniProt Q9BU02)
inactive: erlotinib -0.096 | [1] -0.055 | [2] 0.024 | [3] -0.043 | [4] 0.099 | [5] 0.033 | [6] -0.056 | [7] -0.072 | [8] 0.003 | IRAK-1-4 Inhibitor I 0.026 | ibrutinib 0.014 | [9] 0.079 | ralimetinib 0.021 | [10] 0.039 | [11] 0.007 | [12] 0.007 | [13] -0.031 | [14] 0.011 | [15] -0.048 | [16] -0.05

TMED10 (UniProt P49755)
inactive: erlotinib 0.01 | [1] 0.094 | [2] -0.05 | [3] 0.006 | [4] -0.024 | [5] 0.009 | [6] -0.001 | [7] 0.019 | [8] 0.025 | IRAK-1-4 Inhibitor I 0.015 | ibrutinib 0.018 | [9] 0.013 | ralimetinib 0.002 | [10] -0.017 | [11] -0.006 | [12] 0.041 | [13] -0.004 | [14] 0.013 | [15] -0.038 | [16] 0.017

TMEM185B (UniProt Q9H7F4)
inactive: erlotinib -0.021 | [1] 0.021 | [2] -0.011 | [3] 0.069 | [4] 0 | [5] -0.041 | [6] 0.053 | [7] 0.042 | [8] 0.002 | IRAK-1-4 Inhibitor I 0.117 | ibrutinib -0.042 | [9] 0.033 | ralimetinib -0.062 | [10] -0.062 | [11] -0.018 | [12] 0.079 | [13] -0.203 | [14] 0.064 | [15] -0.003 | [16] 0.111

TMEM120A (UniProt Q9BXJ8)
inactive: erlotinib -0.022 | [1] -0.169 | [2] -0.095 | [3] 0.101 | [4] 0.046 | [5] -0.015 | [6] -0.147 | [7] -0.143 | [8] 0.009 | IRAK-1-4 Inhibitor I -0.006 | ibrutinib -0.088 | [9] 0.036 | ralimetinib 0.025 | [10] -0.354 | [11] -0.057 | [12] 0.037 | [13] -0.052 | [14] 0.044 | [15] 0.045 | [16] -0.055

4 consecutive entries from above:
TMBIM1 (UniProt Q969X1)
inactive: erlotinib -0.07 | [1] 0.115 | [2] 0 | [3] 0 | [4] 0.054 | [5] -0.023 | [6] -0.05 | [7] 0.013 | [8] 0.029 | IRAK-1-4 Inhibitor I 0 | ibrutinib 0.058 | [9] -0.002 | ralimetinib 0.022 | [10] -0.005 | [11] 0.01 | [12] 0.011 | [13] 0.028 | [14] 0.072 | [15] -0.041 | [16] -0.015

TMEM160 (UniProt Q9NX00)
inactive: erlotinib -0.02 | [1] -0.126 | [2] -0.026 | [3] -0.216 | [4] 0.059 | [5] 0.009 | [6] 0.005 | [7] 0.078 | [8] 0.104 | IRAK-1-4 Inhibitor I 0.086 | ibrutinib -0.086 | [9] 0.049 | ralimetinib -0.013 | [10] -0.034 | [11] 0.039 | [12] -0.001 | [13] 0.013 | [14] -0.075 | [15] -0.008 | [16] -0.036

TIA1 (UniProt P31483)
inactive: erlotinib 0 | [1] -0.01 | [2] 0.134 | [3] -0.051 | [4] -0.009 | [5] -0.055 | [6] 0 | [7] 0 | [8] -0.055 | IRAK-1-4 Inhibitor I 0.005 | ibrutinib -0.02 | [9] -0.006 | ralimetinib -0.017 | [10] 0.038 | [11] -0.056 | [12] -0.07 | [13] 0.08 | [14] -0.163 | [15] -0.045 | [16] 0.017

THTPA (UniProt Q9BU02)
inactive: erlotinib -0.096 | [1] -0.055 | [2] 0.024 | [3] -0.043 | [4] 0.099 | [5] 0.033 | [6] -0.056 | [7] -0.072 | [8] 0.003 | IRAK-1-4 Inhibitor I 0.026 | ibrutinib 0.014 | [9] 0.079 | ralimetinib 0.021 | [10] 0.039 | [11] 0.007 | [12] 0.007 | [13] -0.031 | [14] 0.011 | [15] -0.048 | [16] -0.05

Following part:

TIMELESS (UniProt Q9UNS1)
inactive: erlotinib 0.023 | [1] 0.069 | [2] -0.083 | [3] -0.003 | [4] -0.002 | [5] -0.001 | [6] -0.068 | [7] -0.018 | [8] 0 | IRAK-1-4 Inhibitor I -0.032 | ibrutinib 0.011 | [9] -0.079 | ralimetinib 0.006 | [10] -0.053 | [11] -0.01 | [12] 0.011 | [13] -0.007 | [14] -0.01 | [15] 0.029 | [16] -0.027

TIPRL (UniProt O75663)
inactive: erlotinib 0.012 | [1] 0.074 | [2] -0.003 | [3] 0.032 | [4] 0 | [5] 0.008 | [6] 0.007 | [7] -0.004 | [8] -0.046 | IRAK-1-4 Inhibitor I -0.007 | ibrutinib 0.019 | [9] 0.018 | ralimetinib 0 | [10] -0.01 | [11] 0.001 | [12] -0.017 | [13] -0.031 | [14] 0.028 | [15] 0.01 | [16] 0.016
